Test results published in PubChem BioAssay AID540276 (National Center for Advancing Translational Sciences (NCATS), 2011).
Several values for one entry are separate records, joined by “and”; a condition that tells them apart may be missing. Equal values may be shown once. In all, about 300,000 compounds went through this assay and about 5,400 (1.8%) were called active. Inconclusive means that the source gave no clear call. Such entries were picked first, then a sample of the others. The call rests on the fitted dose curve; tested in HEK293 cells. Potencies of inconclusive entries are doubtful fits and often do not repeat.

Test: qHTS for inhibitors of binding or entry into cells for Marburg Virus
Details: Marburg virus pseudotyped entry inhibition, cell reporter; activity change, negative = inhibition: at 37.8 µM (top of the series) unless noted
On the % scale 0 is the no-effect control and ±100 the full control effect; potency means the concentration at half of the fitted maximal effect.

Row | Compound | Potency | activity change, negative = inhibition
1 | Cc1cccc(CN2CCCC(C(=O)c3ccc(C(F)(F)F)cc3)C2)n1 (stereo not drawn) | inconclusive: 11.2 µM [inhibitor, partial curve, poor fit] | –
2 | CC(OC(=O)CSCC(=O)Nc1ccc(Cl)cc1)C(=O)N(C)Cc1ccccc1 (stereo not drawn) | inconclusive: 12.6 µM [activator, single point] | –
3 | Cc1ccc(-c2cc(C(=O)OCC(=O)N(C)C3CCS(=O)(=O)C3)c3ccccc3n2)c(C)c1 (stereo not drawn) | – | inactive: 6.74%
4 | O=C(Nc1ccc(O)cc1)C1CCCO1 (stereo not drawn) | – | inactive: 3.01%
5 | COc1ccccc1C(=O)N/C(=C\c1ccccc1)C(=O)NCc1ccco1 | – | inactive: -1.27%
6 | Cc1ccc2c(c1)CCCN2CC(=O)N(C)c1c(N)n(Cc2ccccc2)c(=O)[nH]c1=O | – | inactive: -13.5%
7 | CCOC(=O)c1ccc(NC(=O)CCc2c(C)n(CC)c3cc(-c4ccccc4OC)nn3c2=O)cc1 | – | inactive: 4.8% [at 46.1 µM]
8 | Cc1c(N=Cc2ccccn2)c(=O)n(-c2ccccc2)n1C | inconclusive: 18.3 µM [activator, partial curve, poor fit] | –
9 | Cc1oc(=O)c(NC(=O)c2ccccc2)cc1C(=O)c1ccccc1 | – | inactive: 2.41%
10 | Cc1ccc2c(c1)C=CC(C)N2C(=O)c1ccccc1 (stereo not drawn) | – | inactive: -15.1%
11 | Nc1nc(-c2ccc(Cl)cc2)c(N=Nc2ccc(S(=O)(=O)N3CCOCC3)cc2)s1 | inconclusive: 6.31 µM [inhibitor, single point] | –
12 | Cc1ccc(C(=O)N2CCN(c3ccc([N+](=O)[O-])c(NCc4cccnc4)c3)CC2)cc1 | inconclusive: 28.2 µM [inhibitor, single point] | –
13 | CC(C)C(=O)Nc1ccc(-c2csc(-c3ccccc3)n2)cc1 | – | inactive: 22%
14 | NC(=O)c1cc(S(=O)(=O)NCc2ccc(Br)cc2)cs1 | inconclusive: 1.12 µM [inhibitor, full curve, poor fit] | –
15 | COc1ccc([C@H]2C[C@@H](O)[C@H](n3cc(-c4ccc(F)cc4)nn3)CN2Cc2cccs2)cc1 | active: 8.87 µM | –
16 | COc1ccc(-n2c(Cc3cccn3C)nnc2SCC(=O)NCCc2ccccc2)cc1 | inactive | –
17 | CN(C)C(=O)CCCc1nc(-c2ccc(Cl)cc2)no1 | inconclusive: 23.1 µM [inhibitor, single point] | –
18 | CCn1c2ccccc2c2nnc(NN)nc21 | inconclusive: 8.91 µM [inhibitor, partial curve, poor fit] | –
19 | CCC(=O)N(Cc1cccs1)[C@@H]1CCOC(C)(C)C1 | – | inactive: -15.7% [at 46.1 µM]
20 | Cc1snc(SCC(=O)c2ccc([N+](=O)[O-])cc2)c1C#N | – | inactive: 1.33% [at 46.1 µM]
21 | O=C(CCCC1=NS(=O)(=O)c2ccccc2N1)N1CCN(c2ccccc2)CC1 | – | inactive: -14.4%
22 | CC(C)(C)C1CCc2c(sc(N)c2C(N)=O)C1 (stereo not drawn) | inconclusive: 35.5 µM [inhibitor, single point] | –
23 | O=C(Nc1ccc(Oc2ccc(NC(=O)c3ccco3)c(NC(=O)c3ccco3)c2)cc1)c1ccco1 | inconclusive: 16.4 µM [inhibitor, partial curve, poor fit] | –

Row | Compound | Potency | activity change, negative = inhibition
24 | CCOc1ccc(OCCC(=O)N2CCc3cc(OC)c(OC)cc3C2)cc1 | inconclusive: 25.1 µM [inhibitor, single point] | –
25 | COc1cc(-c2cc(-c3nnco3)c3ccccc3n2)cc(OC)c1OC | inconclusive: 3.16 µM [activator, partial curve, poor fit] | –
26 | CC1CCC(NC(=O)C2CCN(c3c4c(nc5ncnn35)CCC4)CC2)CC1 (stereo not drawn) | – | inactive: 14.5% [at 46.1 µM]
27 | CCc1ccc(NC(=O)CCc2nnc3ccc(N4CCC5(CC4)OCCO5)nn23)cc1 | inconclusive: 0.631 µM [activator, full curve, poor fit] | –
28 | COc1ccc(C(=O)c2ccccc2)c(OCC(=O)NC2CC2)c1 | inconclusive: 5.62 µM [activator, single point] | –
29 | CCN(CC)CCN1C(=O)C2C(C(=O)Nc3ccc(Br)cc3)C3C=CC2(O3)C1C(=O)NC1CCCCC1 (stereo not drawn) | inconclusive: 31.6 µM [inhibitor, single point] | –
30 | Cc1oc2cc(O)ccc2c(=O)c1-c1cnn(-c2ccccc2)c1 | inconclusive: 1.41 µM [activator, partial curve, poor fit] | –
31 | CCOC(=O)C1CCCN(C(=O)CCc2ccccc2)C1 (stereo not drawn) | – | inactive: 21.9%
32 | Cc1cc(C(=O)Cn2nc(C(=O)O)c3ccccc3c2=O)c(C)n1-c1ccccc1 | inconclusive: 35.5 µM [inhibitor, single point] | –
33 | CCCCc1ccc(NS(=O)(=O)N(C)C)cc1 | inconclusive: 6.51 µM [inhibitor, single point] | –
34 | COc1ccc(F)cc1S(=O)(=O)n1nc(C)cc1C | – | inactive: 2.82% [at 46.1 µM]
35 | O=C(O)CCCCCNC(=O)/C=C/c1ccco1 | inconclusive: 31.6 µM [activator, single point] | –
36 | Cc1ccc2c(CC(=O)Nc3c(C(=O)c4ccc(F)cc4)oc4ccccc34)coc2c1 | – | inactive: 2.31% [at 46.1 µM]
37 | COc1ccc(C(=O)C2CCCN(C3Cc4ccccc4C3)C2)c(OC)c1 (stereo not drawn) | inconclusive: 12.6 µM [inhibitor, single point] | –
38 | CC1CCCCC1n1c(=S)[nH]c2ccccc2c1=O (stereo not drawn) | inconclusive: 16.4 µM [inhibitor, single point] | –
39 | COc1ccc(C(=S)Nc2ccc(N(C)C)cc2)cc1 | inconclusive: 29.1 µM [inhibitor, single point] | –
40 | Cn1c(-c2cc3ccc(OC(=O)C(C)(C)C)cc3oc2=O)nc2ccccc21 | inconclusive: 11.6 µM [activator, partial curve] | –
41 | CC(Oc1ccc(F)cc1)C(=O)Nc1cc(C(F)(F)F)ccc1-n1cncn1 (stereo not drawn) | inconclusive: 5.01 µM [activator, single point] | –
42 | CC(C)C(NC(=O)c1ccc(C(C)(C)C)cc1)C(=O)OCC(=O)NC(=O)Cc1ccccc1 (stereo not drawn) | inconclusive: 6.31 µM [activator, partial curve, poor fit] | –
43 | COC(=O)[C@@]1(C=C2c3ccc(F)cc3[C@@H](OC)[C@@H]2C)[C@@H]2c3ccccc3O[C@@H]21 | inconclusive: 0.75 µM [inhibitor, single point] | –
44 | COCCNC(=O)Cn1cnc2c(cnn2-c2ccc(C)cc2)c1=O | – | inactive: 14.6% [at 46.1 µM]
45 | CCNC(=O)c1ccccc1NC(=O)c1cccc(S(=O)(=O)N2CCC(C)CC2)c1 | inconclusive: 35.5 µM [inhibitor, single point] | –
46 | Cc1ccc(C(=O)NC(=S)Nc2cccc3nsnc23)cc1 | – | inactive: 6.37%

Row | Compound | Potency | activity change, negative = inhibition
47 | CCC1(c2ccccc2)NC(=O)N(CC(=O)Nc2ccc3c(C)cc(=O)oc3c2)C1=O (stereo not drawn) | – | inactive: 18%
48 | COc1cc(C)c(NC(=O)C(=S)NCCc2ccccc2)cc1C | inconclusive: 10 µM [inhibitor, partial curve, poor fit] | –
49 | Cc1ccc(/C=C/S(=O)(=O)NCC(=O)OCC(=O)Nc2c(F)cccc2F)cc1 | – | inactive: -24.2%
50 | CC[C@H](C)[C@H](NC(N)=O)C(=O)Nc1ccc(C)cc1 | inconclusive: 0.891 µM [activator, full curve, poor fit] | –
51 | CC(=O)Nc1cccc(Cn2cccn2)c1 | – | inactive: -5.33%
52 | CCN(c1ccccc1)S(=O)(=O)c1ccc(NC(=O)c2cc(=O)c3ccc(C)c(C)c3o2)cc1 | – | inactive: 18.6% [at 46.1 µM]
53 | CCCCn1c(Cn2nc(C(=O)O)c3ccccc3c2=O)nc2cc(S(N)(=O)=O)ccc21 | inconclusive: 8.91 µM [activator, partial curve, poor fit] | –
54 | O=[N+]([O-])c1ccc2nc(C(O)C(O)c3nc4ccc([N+](=O)[O-])cc4[nH]3)[nH]c2c1 (stereo not drawn) | – | inactive: -13.9%
55 | Cc1ncc(CNC(=O)N(CCCl)N=O)c(N)n1 | inactive and inconclusive: 10 µM [inhibitor, full curve, poor fit] | –
56 | Cc1nn(-c2ccc(C(=O)O)cc2)c(N)c1-c1ccccc1 | inconclusive: 7.08 µM [inhibitor, partial curve, poor fit] | –
57 | COc1ccc(C(C(=O)NC2CCCC2)N(C(=O)c2snc(-c3ccc(F)cc3)c2N)c2ccc(F)cc2)cc1 (stereo not drawn) | inconclusive: 1.83 µM [inhibitor, full curve] | –
58 | CCCc1cc(=O)n2[nH]c(-c3ccccc3)cc2n1 | – | inactive: -7.71% [at 46.1 µM]
59 | Cc1ccc(S(=O)(=O)N(C)C)cc1NC(=O)CSc1nncs1 | inconclusive: 1.26 µM [inhibitor, single point] | –
60 | O=C1NC(c2cccs2)Nc2ccccc21 (stereo not drawn) | inconclusive: 0.199 µM [activator, full curve, poor fit] | –
61 | O=C(/C=C\c1ccc(O)c(O)c1)OCCc1ccccc1 | inconclusive: 10 µM [inhibitor, full curve, poor fit] | –
62 | c1ccc(-c2nc(NC3CC3)nc(-n3ccnc3)n2)cc1 | – | inactive: -1.97%
63 | CCn1c(SCc2ccc(F)cc2)nc2c(c1=O)SCC2 | inconclusive: 25.1 µM [inhibitor, single point] | –
64 | C=CCn1c(O)c(C(=O)CCCCCC)c(=O)[nH]c1=O | inconclusive: 35.5 µM [inhibitor, single point] | –
65 | COCc1nnc(NC(=O)c2ccc(S(=O)(=O)N(CC(C)C)CC(C)C)cc2)o1 | inconclusive: 16.4 µM [inhibitor, partial curve, poor fit] | –
66 | CC(C(=O)NC1CCCC1)N(C(=O)CS(=O)CC(=O)Nc1ccc(F)cc1)c1ccc2c(c1)OCCO2 (stereo not drawn) | inconclusive: 5.17 µM [inhibitor, partial curve, poor fit] | –
67 | Cc1c(CN(C)C(=O)c2ccc(Br)o2)cnn1C | inconclusive: 1.16 µM [inhibitor, partial curve, poor fit] | –
68 | CCN(CC)CCN1C(=O)Cn2c(C)c(C)c3cccc1c32 | inconclusive: 18.3 µM [inhibitor, single point] and inconclusive: 23.1 µM [inhibitor, single point] | –

Taken from above.
Entry for `CCN(CC)CCN1C(=O)Cn2c(C)c(C)c3cccc1c32` under Potency: inconclusive: 18.3 µM [inhibitor, single point] and inconclusive: 23.1 µM [inhibitor, single point]
Entry for `COc1ccc(C(C(=O)NC2CCCC2)N(C(=O)c2snc(-c3ccc(F)cc3)c2N)c2ccc(F)cc2)cc1` (stereo not drawn) under Potency: inconclusive: 1.83 µM [inhibitor, full curve]
Entry for `CCn1c(SCc2ccc(F)cc2)nc2c(c1=O)SCC2` under Potency: inconclusive: 25.1 µM [inhibitor, single point]
Entry for `CCCc1cc(=O)n2[nH]c(-c3ccccc3)cc2n1` under activity change, negative = inhibition: inactive: -7.71% [at 46.1 µM]
